Article PMC7713163
Results are given in words; binding and its absence hold for the method and conditions named. In cells and extracts the contact can be indirect. A result given as binding can be weak or reduced; the word gives no strength.

Sequences of proteins named here, by UniProt entry; tags and fusion partners are left off. A change or cut given only in a name is not applied to a line headed by its entry.
UniProt Q13616: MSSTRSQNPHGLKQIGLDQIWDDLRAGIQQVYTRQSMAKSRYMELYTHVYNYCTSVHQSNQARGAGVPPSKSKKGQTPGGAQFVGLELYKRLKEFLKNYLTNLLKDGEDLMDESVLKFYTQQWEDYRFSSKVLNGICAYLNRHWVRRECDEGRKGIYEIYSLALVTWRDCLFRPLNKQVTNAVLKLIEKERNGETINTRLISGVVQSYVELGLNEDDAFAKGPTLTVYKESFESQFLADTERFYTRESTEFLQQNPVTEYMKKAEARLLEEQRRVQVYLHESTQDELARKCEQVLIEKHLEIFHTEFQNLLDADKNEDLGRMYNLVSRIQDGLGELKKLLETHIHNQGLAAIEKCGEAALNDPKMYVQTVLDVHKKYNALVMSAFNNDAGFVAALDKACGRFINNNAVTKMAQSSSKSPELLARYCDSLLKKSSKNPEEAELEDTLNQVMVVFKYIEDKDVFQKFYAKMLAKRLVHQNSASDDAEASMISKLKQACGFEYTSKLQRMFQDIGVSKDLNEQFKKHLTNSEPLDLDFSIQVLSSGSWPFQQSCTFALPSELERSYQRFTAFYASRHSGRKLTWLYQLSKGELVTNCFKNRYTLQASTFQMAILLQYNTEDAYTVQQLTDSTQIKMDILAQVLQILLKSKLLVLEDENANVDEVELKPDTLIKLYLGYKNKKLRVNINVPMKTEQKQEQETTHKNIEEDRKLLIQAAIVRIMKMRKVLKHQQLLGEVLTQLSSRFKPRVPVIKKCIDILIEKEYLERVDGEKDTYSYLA
UniProt Q9NS23: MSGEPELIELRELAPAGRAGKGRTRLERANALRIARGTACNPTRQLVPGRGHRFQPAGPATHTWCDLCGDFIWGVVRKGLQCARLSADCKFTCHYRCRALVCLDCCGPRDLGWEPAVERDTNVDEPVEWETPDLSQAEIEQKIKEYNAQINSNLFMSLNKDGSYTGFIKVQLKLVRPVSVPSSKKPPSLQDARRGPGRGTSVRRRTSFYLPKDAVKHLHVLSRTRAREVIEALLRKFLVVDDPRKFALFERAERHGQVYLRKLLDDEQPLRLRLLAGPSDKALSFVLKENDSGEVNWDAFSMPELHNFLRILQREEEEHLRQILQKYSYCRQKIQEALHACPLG
UniProt P63208: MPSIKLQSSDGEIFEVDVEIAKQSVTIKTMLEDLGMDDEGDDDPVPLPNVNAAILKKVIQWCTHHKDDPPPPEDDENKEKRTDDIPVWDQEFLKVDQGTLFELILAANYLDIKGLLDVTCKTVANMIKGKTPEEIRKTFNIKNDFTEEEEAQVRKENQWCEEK

Experiments:
[1] = target: Cullin-1 (human (in human CRC cells)) (UniProt Q13616); experiment: co-IP; about 800 ug protein incubated with indicated antibodies at 4 °C overnight, protein A or G beads for a further 2 h at 4 °C, beads washed three times, bound proteins detected by western blot; cells and precipitating antibody not given
[2] = target: RASSF1 (human (in human CRC cells)) (UniProt Q9NS23); experiment: as above

binding [1]	binding [2]	Substance
binds		RASSF1 (from UniProt Q9NS23-2)
	binds	SKP1 (S-Phase Kinase Associated Protein 1) (from UniProt P63208 1-163)
